Results deposited as PubChem BioAssay AID1259306 (Sanger Institute, 2017).
The whole screen tested 794 reagents; shown is a random part of them. 11 of all reagents (1.4%) count as active. 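Calls reflect knock-down alone; synergy scores play no part, so knock-downs synergising with a drug can be called no change.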 Unmarked entries are inactive. No viability above 1 is reported: the scale is capped. Further read-outs or replicates are left out here. Not given: the amount of reagent, the time to read-out.

Screen: 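Kinases needed for viability and knock-downs that synergise with BYL719, cetuximab or trametinib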 (primary screen)
Cells: human SNU-C5 colorectal cancer cells
Knock-down reagent: siRNA pool against human genes
Conditions: DMSO vehicle alone, or one anchor drug: BYL719 at 1 µM, cetuximab at 5 µg/ml or trametinib at 10 nM, given 24 h into the assay
Read-out: 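Viability versus non-targeting pool averaged across replicates, given as fraction and robust z-score, and synergy scores for BYL719, cetuximab or trametinib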
Reading the numbers: robust z-score, knock-down alone and viability, knock-down alone: higher = more viable cells; synergy score with BYL719: higher = stronger synthetic lethality with BYL719; synergy score with cetuximab: higher = stronger synthetic lethality with cetuximab
Active means: 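Essential if knock-down without drug gives a robust z-score under -3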
Meaning of the calls: active = essential (knock-down alone); inactive = no change alone

| target | robust z-score, knock-down alone | viability, knock-down alone | synergy score with BYL719 | synergy score with cetuximab |
| --- | --- | --- | --- | --- |
| ACVR1 | 0.989 | 1 | 0.0999 | 0 |
| PRKAA1 | -0.255 | 0.829 | 0.0823 | -0.171 |
| TBX3 | 0.241 | 0.897 | -0.00774 | -0.0401 |
| SMG1 | -1.59 | 0.645 | 0.022 | -0.0307 |
| MAGI2 | 0.989 | 1 | 0.00514 | 0 |
| RIOK3 | 0.231 | 0.896 | 0.193 | 0.218 |
| STK11 | 0.459 | 0.927 | 0.17 | 0.247 |
| ACVR1B | 0.56 | 0.941 | 0.0344 | -0.0591 |
| MAPK9 | 0.989 | 1 | 0 | 0 |
| ACO1 | -2.1 | 0.574 | 0.108 | -0.00789 |
| PHKB | 0.343 | 0.911 | 0.157 | 0.0689 |
| DGKH | 0.989 | 1 | 0.165 | 0 |
| NME7 | 0.989 | 1 | 0.129 | 0 |
| RPS6KA4 | 0.518 | 0.935 | 0.305 | 0.0182 |
| LIMK2 | 0.795 | 0.973 | 0.0786 | -0.0268 |
| GRK5 | 0.989 | 1 | 0 | 0.0111 |
| RBKS | -0.148 | 0.843 | -0.000569 | 0.0331 |
| NR2F2 | -0.177 | 0.839 | 0.0875 | 0.0357 |
| PSKH2 | 0.989 | 1 | 0.0831 | 0.123 |
| DNMT3A | -1.11 | 0.711 | 0.191 | 0.115 |
| IKBKE | -0.773 | 0.757 | -0.0377 | 0.168 |
| EPHA6 | -2.64 | 0.5 | -0.0402 | 0.149 |
| TTBK1 | -0.488 | 0.797 | -0.0714 | -0.0432 |
| BCR | -2.34 | 0.542 | -0.0604 | -0.146 |
| IPMK | -0.982 | 0.728 | -0.272 | -0.272 |
| ROR2 | 0.989 | 1 | 0.0837 | 0 |
| PAK1 | 0.989 | 1 | 0.107 | 0 |
| FGFR1 | 0.989 | 1 | 0.145 | 0 |
| ACVRL1 | 0.989 | 1 | 0.218 | 0.203 |
| PTK6 | 0.801 | 0.974 | 0.246 | 0.2 |
| CDKL4 | 0.678 | 0.957 | 0.172 | 0.0041 |
| CHUK | 0.184 | 0.889 | 0.0963 | 0.204 |
| AKT1 | 0.887 | 0.986 | 0.279 | 0.18 |
| NEK2 | -0.712 | 0.766 | 0.00783 | -0.0564 |

In a second layout: 3 of the entries above.
target | robust z-score, knock-down alone | viability, knock-down alone | synergy score with BYL719 | synergy score with cetuximab
MAPK9 | 0.989 | 1 | 0 | 0
ACO1 | -2.1 | 0.574 | 0.108 | -0.00789
PHKB | 0.343 | 0.911 | 0.157 | 0.0689
